Experimental data reported in publication PMC9571290, “Preliminary Structure–Activity Relationship Study of the MMV Pathogen Box Compound MMV675968 (2,4-Diaminoquinazoline) Unveils Novel Inhibitors of Trypanosoma brucei brucei” (Molecules, 2022).
Where two headings read alike, the source gives them in different places.

System: bloodstream forms of Trypanosoma brucei brucei
Assay: resazurin-based antitrypanosomal inhibition assay
Type: cell-based
Description: Parasites were axenically cultivated in sterile vented flasks containing complete Hirumi’s modified Iscove’s medium 9 (HMI-9) [500 mL IMDM (Iscove’s modified Dulbecco’s medium) (Gibco, Waltham, MA, USA) supplemented with 10% (v/v) heat-inactivated fetal bovine serum (HIFBS) (Sigma Aldrich), 10% (v/v) serum plus (Sigma Aldrich), HMI-9 supplement (1 mM hypoxanthine, 0.16 mM thymidine, 50 µM bathocuproine disulfonic acid, 1.5 mM cysteine, 1.25 Mm pyruvic acid, 0.2 mM 2-mercaptoethanol (Sigma Aldrich)), and 1% (v/v) penicillin–streptomycin (Sigma Aldrich) and incubated at 37 °C in a 5% CO2 atmosphere.
The in vitro inhibitory potency of the 400 MMVPB compounds against bloodstream forms of Trypanosoma brucei brucei was evaluated using the resazurin-based inhibition assay as previously described. Briefly, parasites at their mid-logarithmic growth phase were counted, and the cell density was adjusted with fresh complete HMI-9 medium to 2 × 10^5 trypanosomes per mL. Then, 90 µL of parasite suspension was then distributed into the wells of 96-well flat-bottomed plates containing 10 µL of compounds for a final test concentration of 10 µM. […] Each assay plate was set up in duplicate and repeated two times. The percent parasite inhibition was determined for each compound based on fluorescence readouts relative to the mean fluorescence of negative control wells. […]

SMILES: CNCCC(Oc1ccc(C(F)(F)F)cc1)c1ccccc1 (centres unmarked) [MMV001561, fluoxetine, reference compound]
- IC50 (Table 2, MMVPB compounds with known anti-kinetoplastid activity, read-out: IC50 ± SD T. b. b.): 1900 ± 50 nM
- IC50 (Table 2, negative log of IC50 in molar, read-out: pIC50 T. b. b. (converted)): 1910 nM
